Literature values in US9381349B2, “Apparatus for treating cerebral neurovascular disorders including headaches by neural stimulation” (priority 1997, dated 2016).
For at least one compound, name, drawing or mass did not settle the structure.

Test system: nerve structure
Conditions: intranasally administered; cited from earlier work

## COC(=O)[C@H]1[C@@H](OC(=O)c2ccccc2)C[C@@H]2CC[C@H]1N2C [cocaine]
  Duration of action: shorter than about one hour
